# Test results published in PubChem BioAssay AID248 (DTP/NCI, 2004).
# The list shows only some results of the screen, not a fair sample: it gathers tests that were run many times, whatever their T/C, doses with no T/C, and many T/C values between a quarter and a half above the control. Further doses and runs are listed elsewhere. T/C is the treated group as % of the vehicle group. Some doses have a count of surviving animals in place of a T/C: the source files T/C as zero there, which appears to mark a toxic dose or a test without result, not a measured value. Some doses without a T/C left all or most animals alive at the check, yet need not have been tolerated: survival well below the control is almost never listed, so the zero probably covers shortened survival too. Survivors were counted at the toxicity check, usually on the fifth day, unless a day is given; later deaths do not show. Schedules are NCI's codes, read here as Q, the interval in days (D) or hours (H), X, the number of doses. Some schedule codes hold Z or #, which are not explained here. Some doses were run more than once; the values are given in rising order. Where survival is the endpoint, this PubChem deposit counts one and a half times the control or more as active, and values a quarter to a half above the control carry no call in these data; other NCI protocols may use other cut-offs. Some T/C values carry the count of animals alive at the toxicity check (mostly the fifth day); where none is given, no animal had died by that day.
# Test system: L1210 leukemia ip in BDF1 mice, survival T/C
# Test: NCI In Vivo Anticancer Drug Screen. Data for tumor model L1210 Leukemia (intraperitoneal) in B6D2F1 (BDF1) mice
# Conditions: T/C endpoint: mean survival time, higher T/C = longer survival
# [1] = dose: 200.0 mg/kg/injection, schedule: Q04DX003 (ip), vehicle: saline
# [2] = dose: 400.0 mg/kg/injection, schedule: Q04DX003 (ip), vehicle: saline
# [3] = dose: 200.0 mg/kg/injection, schedule: Q04DX003 (ip), vehicle: Klucel (hydroxypropylcellulose) (HPC)
# [4] = dose: 400.0 mg/kg/injection, schedule: Q04DX003 (ip), vehicle: Klucel (hydroxypropylcellulose) (HPC)
# [5] = dose: 200.0 mg/kg/injection, schedule: Q04DX003 (ip), vehicle: saline with Tween-80
# [6] = dose: 400.0 mg/kg/injection, schedule: Q01DX001 (ip), vehicle: saline
# [7] = dose: 300.0 mg/kg/injection, schedule: Q01DX001 (ip), vehicle: carboxymethylcellulose (CMC)
# [8] = dose: 400.0 mg/kg/injection, schedule: Q01DX009 (ip), vehicle: saline with Tween-80
# [9] = dose: 200.0 mg/kg/injection, schedule: Q01DX009 (ip), vehicle: Klucel (hydroxypropylcellulose) (HPC)
# [10] = dose: 100.0 mg/kg/injection, schedule: Q04DX003 (ip), vehicle: Klucel (hydroxypropylcellulose) (HPC)
compound,measurement,setting,value
O/N=C\C[n+]1cc2ccccc2cc1/C=N\O,survivor count,[1],2 of 6
same,survivor count,[2],0 of 6
NS(=O)(=O)c1cccc([N+](=O)[O-])c1,survivor count,[3],5 of 6
same,survivor count,[4],2 of 6
C=C[CH2][Sn]([c]1ccccc1)([c]1ccccc1)[c]1ccccc1,survivor count,[5],3 of 3
same,survivor count,"dose: 400.0 mg/kg/injection, schedule: Q04DX003 (ip), vehicle: saline with Tween-80",0 of 3
CC(=O)NC1CCC(C)CC1 (stereo unspecified),survivor count,"dose: 200.0 mg/kg/injection, schedule: Q01DX001 (ip), vehicle: Klucel (hydroxypropylcellulose) (HPC)",1 of 6
same,survivor count,"dose: 400.0 mg/kg/injection, schedule: Q01DX001 (ip), vehicle: Klucel (hydroxypropylcellulose) (HPC)",0 of 6
O=[N+]([O-])c1cc(Cl)c(Cl)c([N+](=O)[O-])c1O,survivor count,"dose: 200.0 mg/kg/injection, schedule: Q04DX003 (ip), vehicle: acetone",5 of 6
same,survivor count,"dose: 225.0 mg/kg/injection, schedule: Q01DX009 (ip), vehicle: acetone",0 of 6
same,survivor count,"dose: 335.0 mg/kg/injection, schedule: Q01DX009 (ip), vehicle: acetone",0 of 6
same,survivor count,[6],1 of 6
Cc1ccc2c(c1C)-c1c(ccc(C)c1C)C(=O)C2=O,T/C,"dose: 200.0 mg/kg/injection, schedule: Q04DX002 (ip), vehicle: Klucel (hydroxypropylcellulose) (HPC)",136 % of control [2 of 3 alive]
CCCC(=O)OCC1OC(n2ccc(N)nc2=O)C(O)C1OC(=O)CCC (stereo unspecified),survivor count,"dose: 400.0 mg/kg/injection, schedule: Q01DX005 (ip), vehicle: Klucel (hydroxypropylcellulose) (HPC)",6 of 6
C[N+](C)(Cc1ccc(Cl)cc1)C1c2ccccc2-c2ccccc21,survivor count,"dose: 12.5 mg/kg/injection, schedule: Q04DX003 (ip), vehicle: saline",6 of 6
same,survivor count,"dose: 100.0 mg/kg/injection, schedule: Q04DX003 (ip), vehicle: saline",0 of 6
same,survivor count,[1],0 of 6
same,survivor count,[2],0 of 6
CC1=NC(C#N)=C(C#N)N=C(c2ccccc2)C1,survivor count,"dose: 400.0 mg/kg/injection, schedule: Q01DX009 (ip), vehicle: gum acacia",6 of 6
CNNC(=O)NC,survivor count,"dose: 200.0 mg/kg/injection, schedule: Q01DX009 (ip), vehicle: saline",0 of 6
CC1(C)S[C@@H]2[C@H](NC=O)C(=O)N2[C@H]1C(=O)OCc1ccccc1,survivor count,[7],6 of 6
Cc1ccc(S(=O)(=O)N(CCC(=O)O)c2ccccc2)cc1,survivor count,[8],5 of 6
CCCCCCCCN(NC(=O)c1ccccc1)S(=O)(=O)c1ccccc1,survivor count,"dose: 100.0 mg/kg/injection, schedule: Q04DX003 (ip), vehicle: carboxymethylcellulose (CMC)",3 of 6
same,survivor count,"dose: 200.0 mg/kg/injection, schedule: Q01DX009 (ip), vehicle: carboxymethylcellulose (CMC)",0 of 3 and 0 of 6
CCN(O)C(N)=O,T/C,"dose: 176.0 mg/kg/injection, schedule: Q01DX009 (ip), vehicle: saline",129 and 144 % of control
same,T/C,"dose: 268.0 mg/kg/injection, schedule: Q01DX009 (ip), vehicle: saline",140 % of control
same,T/C,"dose: 400.0 mg/kg/injection, schedule: Q01DX009 (ip), vehicle: saline",148 % of control
CC(=O)OCC1OC(N2C(=O)/C(=C/c3cccnc3)SC2=S)C(OC(C)=O)C(OC(C)=O)C1OC(C)=O (stereo unspecified),survivor count,"dose: 400.0 mg/kg/injection, schedule: Q01DX005 (ip), vehicle: other",0 of 6
CC1CN(Cc2cccc(C#N)c2)CC(C)N1 (stereo unspecified),survivor count,"dose: 200.0 mg/kg/injection, schedule: Q01DX009 (ip), vehicle: water",0 of 6
same,survivor count,"dose: 400.0 mg/kg/injection, schedule: Q01DX009 (ip), vehicle: water",0 of 6
BrC1CCCCC1Br (stereo unspecified),survivor count,[6],2 of 4
COc1cc(NC(=O)N(CCCl)N=O)cc(OC)c1OC,T/C,"dose: 3.3 mg/kg/injection, schedule: Q01DX009 (ip), vehicle: saline with Tween-80",126 % of control
same,T/C,"dose: 5.0 mg/kg/injection, schedule: Q01DX009 (ip), vehicle: saline with Tween-80",135 % of control
same,T/C,"dose: 7.0 mg/kg/injection, schedule: Q01DX009 (ip), vehicle: saline with Tween-80",141 % of control
same,T/C,"dose: 16.6 mg/kg/injection, schedule: Q01DX001 (ip), vehicle: saline",145 % of control
same,survivor count,"dose: 150.0 mg/kg/injection, schedule: Q01DX001 (ip), vehicle: carboxymethylcellulose (CMC)",3 of 6
same,survivor count,[7],0 of 6
CNc1ncc2nc(C)c(=O)n(C)c2n1,survivor count,[9],1 of 3
C=C(c1ccccc1)[P+](c1ccccc1)(c1ccccc1)c1ccccc1,survivor count,"dose: 30.0 mg/kg/injection, schedule: Q01DX001 (ip), vehicle: saline",0 of 6
same,survivor count,"dose: 60.0 mg/kg/injection, schedule: Q01DX001 (ip), vehicle: saline",0 of 6
same,survivor count,"dose: 75.0 mg/kg/injection, schedule: Q01DX001 (ip), vehicle: saline",0 of 6
same,survivor count,"dose: 150.0 mg/kg/injection, schedule: Q01DX001 (ip), vehicle: saline",0 of 6
same,survivor count,"dose: 300.0 mg/kg/injection, schedule: Q01DX001 (ip), vehicle: saline",0 of 6
Cc1ccc2c(ccc3c[n+]4ccccc4c(C)c32)c1,survivor count,"dose: 50.0 mg/kg/injection, schedule: Q01DX001 (ip), vehicle: carboxymethylcellulose (CMC)",1 of 4
same,survivor count,"dose: 100.0 mg/kg/injection, schedule: Q01DX001 (ip), vehicle: carboxymethylcellulose (CMC)",0 of 4
CC(NC(=O)OCc1ccccc1)C(=O)NC(Cc1ccccc1)C(=O)OCc1ccccc1 (stereo unspecified),survivor count,[5],6 of 6
CN(N=O)C(=O)NNC(=O)N(C)N=O,T/C,"dose: 10.0 mg/kg/injection, schedule: Q01DX Z (ip), vehicle: carboxymethylcellulose (CMC)",125 % of control
same,T/C,"dose: 12.5 mg/kg/injection, schedule: Q01DX Z (ip), vehicle: carboxymethylcellulose (CMC)",140 % of control
same,T/C,"dose: 15.0 mg/kg/injection, schedule: Q01DX Z (ip), vehicle: carboxymethylcellulose (CMC)",136 % of control [4 of 6 alive]
same,T/C,"dose: 25.0 mg/kg/injection, schedule: Q01DX Z (ip), vehicle: carboxymethylcellulose (CMC)",145 % of control
same,T/C,"dose: 30.0 mg/kg/injection, schedule: Q01DX Z (ip), vehicle: carboxymethylcellulose (CMC)",136 % of control
same,survivor count,"dose: 40.0 mg/kg/injection, schedule: Q01DX Z (ip), vehicle: carboxymethylcellulose (CMC)",6 of 6
same,survivor count,"dose: 100.0 mg/kg/injection, schedule: Q01DX Z (ip), vehicle: carboxymethylcellulose (CMC)",0 of 6
CS(=O)(=O)CCS(=O)(=O)c1cccs1,survivor count,[9],3 of 6
O=c1[nH]c2ccsc2c(=O)n1O,survivor count,[2],5 of 6
CCCCCCCCCCCC(=O)NC(=S)Nc1ccc(OC)cc1,survivor count,[10],6 of 6
same,survivor count,[3],6 of 6
same,survivor count,[4],6 of 6
O=[N+]([O-])c1c(Br)sc(Br)c1[N+](=O)[O-],survivor count,"dose: 20.0 mg/kg/injection, schedule: Q04DX003 (ip), vehicle: Klucel (hydroxypropylcellulose) (HPC)",5 of 6
same,survivor count,"dose: 40.0 mg/kg/injection, schedule: Q04DX003 (ip), vehicle: Klucel (hydroxypropylcellulose) (HPC)",1 of 6
same,survivor count,"dose: 80.0 mg/kg/injection, schedule: Q04DX003 (ip), vehicle: Klucel (hydroxypropylcellulose) (HPC)",0 of 6
same,survivor count,[10],0 of 6
same,survivor count,[3],0 of 6
same,survivor count,[4],0 of 6
O=C(CI)Nc1ccc(OC(=O)CI)cc1,survivor count,[10],1 of 6
same,survivor count,[3],0 of 6
same,survivor count,[4],0 of 6
O=C(C[n+]1cccc(C(=O)Nc2ccccc2)c1)Nc1ccc(Cl)cc1,survivor count,[6],3 of 6
CC1(C)N=C(N)N=C(N)N1c1cccc(CO)c1,survivor count,[6],0 of 3
CNC(=O)Nc1ccc(Cl)cn1,survivor count,"dose: 200.0 mg/kg/injection, schedule: Q01DX009 (ip), vehicle: saline with Tween-80",2 of 6
same,survivor count,[8],0 of 6
